The results are deposited in PubChem (AID1159506; NCATS, 2015).

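Genome-wide siRNA knockdown in TC32 Ewing sarcoma cells, comparing luciferase light from an NR0B1-promoter reporter with a CMV-promoter reporter 48 hours after transfection. Each siRNA was applied at 20 nM. A z-score of the log NR0B1-over-CMV signal, less the median of siRNAs with the same seed; more negative means a stronger specific loss of the NR0B1 reporter.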

This is part of the screen; most of the strongest results are not listed here. Sequences are the guide (antisense) strand, without overhang.

| Sequence | gene | seed-corrected z-score |
|---|---|---|
| `AACUCUUUAACGAUCAAGU` | ARL6IP6 | -0.8971 |
| `UCAUUGUCAUUUUCAACUC` | CLSTN1 | -0.5916 |
| `UAUGGAGGAGGCUUUUUAU` | GLUD2 | -0.644 |
| `UCAUAAUCCUUGUAGAGGC` | GJB4 | 0.3426 |
| `AUAAUUGAUACUUGCAACC` | ABHD12B | 1.362 |
| `UAACUGGACAUUCUCAAAG` | MBD3L1 | -0.1699 |
| `UAAAGACCUGCAUUGGACU` | IGSF1 | 0.05811 |
| `UCGGUUCUAAGUCUCCUUG` | TMEM243 | 0.546 |
| `UUAGUAUCAGUGGUCACUG` | CYP2C8 | 0.2273 |
| `UAAGGAAUCUUGUAAUGCA` | LYRM1 | 0.294 |
| `AAAAUUCAUGGUCCAAUUG` | FGFBP1 | 0.9668 |
| `UUGAUAAUUUCAGCAGAGC` | PRCD | -0.2371 |
| `UUGGUGGAGACAAAGAGGG` | UNC93B1 | -1.277 |
| `UUAUUGUCAGUCCUAAUCG` | IFT57 | 0.2974 |
| `UUCUGGACAUCGGCUUUGC` | AARS | -0.3234 |
| `UUCUUAACCAAGUUAGUAC` | NAA30 | 0.2283 |
| `UUUCCUUCUGCAUACGAUC` | ACTC1 | 0.02913 |
| `UUCACUACAAGACAUUUCU` | SYT14P1 | 0.6442 |
| `UAUAGGACCAUAACGACCA` | SRSF10 | -0.5396 |
| `UUCAUGAGAAGCCACAUCC` | CMTM5 | 0.1799 |
| `UAGAGUAAAUCGUAUAGCC` | HTR7 | -0.575 |
| `UUCAGAGUAAUGAUUGAAC` | NFU1 | 0.928 |
| `AAAGGGAACUUCAAUGGUG` | STARD3 | 0.2805 |
| `UUAAUCUCAAUCACCUUGU` | PSMB8 | 0.6907 |
| `UUACUGAAAUGACUGAAGG` | ZNF823 | 0.4446 |
| `UUGAUGCUAAUGUUAAUGC` | SPEM1 | -0.2344 |
| `AACGAUUCUCUGUCCAUGC` | GPBP1 | 0.5894 |
| `UUGGAGUCAAUAGUGUAGC` | SLC26A10 | 0.1627 |
| `AUAGAUGCACUCGAAUUGC` | MBOAT4 | -0.2596 |
| `UUGGUGAAGCAGAAAAAGG` | TBC1D13 | -1.012 |
| `UGUGCAUUCAGCCUAGGCC` | ELMOD3 | 0.5487 |
| `UAAACCUAAAGAGUUUAGC` | PIGP | -0.262 |
| `UUAUGUACAUCCAAAACAU` | TMEM189 | 0.1474 |
| `UCAGGAAUCAUUAGUAUCC` | KCNS1 | -0.108 |
| `UUUGUACGCUGGAUGAUCU` | HRASLS5 | -0.7593 |
| `UUCUGUCUACUUUCCUUCC` | SMIM20 | 0.3039 |
| `UCAUUGGUUGGUCAAAUGG` | CDK17 | -0.3869 |
| `AAACCGAUCACCCAUGUUC` | LCMT1 | 0.5265 |
| `UGUACUGCGAGACCUUUCC` | UNC93A | 0.979 |
| `UUAGUGAAGAUGUCUAUAC` | CP | 0.01977 |
| `UGAAUCCACAUUCAGUUCC` | MAP3K6 | 0.4805 |
| `UUACAGAAUAAACAAAUGA` | FLJ41170 | 0.4802 |
| `UUCCAUGUCGGAAAUGACG` | STMN4 | 0.1514 |
| `UUUUAAAACUCGAGGAACG` | CCDC140 | 1.595 |
| `AGUGUGAUCAUGCUCAAGU` | OR8G2 | -0.719 |
| `UUCCUCUACGUUAUUGUCC` | MMP17 | -1.008 |
| `UUAGCUAAGGGUUUGUUCC` | SLITRK1 | 0.442 |
| `UGUCGAAGUACAGAUCAGG` | RPSAP19 | 2.013 |
| `AUACUGAUCAGCUUCCAGC` | LOC646938 | -0.5742 |
| `UUACUUCUCAUGAAUAGAG` | SAMD10 | -1.906 |
| `UCUGUAUCAACUGUGCAUG` | TMEM9B | -1.167 |
| `AUAGUUUAGAUCGGGAAGC` | WDR26 | -0.121 |
| `ACCUUGAACUCUUUUAUCC` | HAUS8 | 0.05205 |
| `UACAGGACAAGAUUAACAG` | OR5AN1 | -0.3862 |
| `UGUGCUAUCAGGUAUUCGC` | RIMS2 | -0.1982 |

The last 5 entries again:

Sequence	gene	seed-corrected z-score
UCUGUAUCAACUGUGCAUG	TMEM9B	-1.167
AUAGUUUAGAUCGGGAAGC	WDR26	-0.121
ACCUUGAACUCUUUUAUCC	HAUS8	0.05205
UACAGGACAAGAUUAACAG	OR5AN1	-0.3862
UGUGCUAUCAGGUAUUCGC	RIMS2	-0.1982